{
  "source": "patent US9734282B2",
  "about": "“Biological dataset profiling of cardiovascular disease and cardiovascular inflammation” (DISCOVERX CORPORATION, priority 2005, dated 2017)",
  "details_in_all_cases": "protein level drug-treated versus buffer control, 24 h",
  "key": {"[1]": {"tested_on": "Peripheral Blood Mononuclear Cells + Endothelial Cells", "test": "BioMAP SAg system (PBMC + endothelial cells, TCR), cell-based ELISA", "design": "species or system human", "experimental": "(§1) Human umbilical vein endothelial cells (HUVEC) were cultured according to standard methods, and plated into microtiter plates. Peripheral blood mononuclear cells (PBMC) were prepared from buffy coats from normal human donors according to standard methods. Experiments were performed by culturing HUVEC in microtiter plates in the presence of cytokines (IL-1b, 1 ng/ml; TNF-a, 5 ng/ml; and IFN-g, 100 ng/ml, or IL-4, 5 ng/ml and histamine, […]), activators (SAg, 20 ng/ml or LPS, 0.2 ng/ml), and/or PBMC (7.5×10^4 cells/well) for 24 h. Compounds were tested at the indicated concentrations. Compounds were prepared in the solvent as directed, added 1 hr before stimulation of the cells, and were present during the whole 24 hr stimulation period.\n(§2) The levels of readout parameters (proteins) were measured by cell-based ELISA. Briefly, microtiter plates are treated, blocked, and then incubated with primary antibodies or isotype control antibodies (0.01-0.5 mg/ml) for 1 hr. After washing, plates were incubated with a peroxidase-conjugated anti-mouse IgG secondary antibody or a biotin-conjugated anti-mouse IgG antibody for 1 hr followed by streptavidin-HRP for 30 min. Plates were washed and developed with TMB substrate and the absorbance (OD) was read at 450 nm (subtracting the background absorbance at 650 nm). Other readout parameters include: total protein levels (SRB assay), measuring the viability of peripheral blood mononuclear cells (incorporation of propidium iodide); and microscopic visualization. SRB was performed by staining cells with 0.1% sulforhodamine B after fixation with 10% TCA, and reading wells at 560 nm. PBMC viability was assessed by adding propidium iodide (10 mg/ml) to PBMC that had been cultured for 24 hours in the presence of activators and measuring the percentage of cells that incorporated dye by flow cytometry after 10 minutes.\nFor data analysis, mean OD values (or other measurements) for each parameter were calculated from triplicate samples per experiment. […] 99% prediction envelopes (grey shading in Figures) were calculated for historical controls."}, "[2]": {"tested_on": "Primary Human Endothelial Cells (HUVEC)", "test": "BioMAP 4H system (endothelial cells + IL-4 + histamine), cell-based ELISA", "experimental": "as §1, with “Compounds were prepared in the solvent as directed, added 1 hr before stimulation of the cells, and were present during the whole 24 hr stimulation period.” left out\nas §2, with “Briefly, microtiter plates are treated, blocked, and then incubated with primary antibodies or isotype control antibodies (0.01-0.5 mg/ml) for 1 hr. After washing, plates were incubated with a peroxidase-conjugated anti-mouse IgG secondary antibody or a biotin-conjugated anti-mouse IgG antibody for 1 hr followed by streptavidin-HRP for 30 min.” left out, “minutes. […]” for “minutes.”"}, "[3]": {"tested_on": "Peripheral Blood Mononuclear Cells + Endothelial Cells", "test": "BioMAP LPS system (PBMC + endothelial cells, TLR4), cell-based ELISA", "design": "species or system human", "experimental": "Human umbilical vein endothelial cells (HUVEC) were cultured according to standard methods, and plated into microtiter plates. Peripheral blood mononuclear cells (PBMC) were prepared from buffy coats from normal human donors according to standard methods. Experiments were performed by culturing HUVEC in microtiter plates in the presence of cytokines (IL-1b, 1 ng/ml; TNF-a, 5 ng/ml; and IFN-g, 100 ng/ml, or IL-4, 5 ng/ml and histamine, […]), activators (SAg, 20 ng/ml or LPS, 0.2 ng/ml), and/or PBMC (7.5×10^4 cells/well) for 24 h. Compounds were tested at the indicated concentrations. Compounds were prepared in the solvent as directed, added 1 hr before stimulation of the cells, and were present during the whole 24 hr stimulation period. The levels of readout parameters (proteins) were measured by cell-based ELISA. Briefly, microtiter plates are treated, blocked, and then incubated with primary antibodies or isotype control antibodies (0.01-0.5 mg/ml) for 1 hr. After washing, plates were incubated with a peroxidase-conjugated anti-mouse IgG secondary antibody or a biotin-conjugated anti-mouse IgG antibody for 1 hr followed by streptavidin-HRP for 30 min. Plates were washed and developed with TMB substrate and the absorbance (OD) was read at 450 nm (subtracting the background absorbance at 650 nm). Other readout parameters include: total protein levels (SRB assay), measuring the viability of peripheral blood mononuclear cells (incorporation of propidium iodide); and microscopic visualization. SRB was performed by staining cells with 0.1% sulforhodamine B after fixation with 10% TCA, and reading wells at 560 nm. PBMC viability was assessed by adding propidium iodide (10 mg/ml) to PBMC that had been cultured for 24 hours in the presence of activators and measuring the percentage of cells that incorporated dye by flow cytometry after 10 minutes. For data analysis, mean OD values (or other measurements) for each parameter were calculated from triplicate samples per experiment. […] 99% prediction envelopes (grey shading in Figures) were calculated for historical controls."}},
  "data": [
    {"compound": "CC(C)c1c(C(=O)Nc2ccccc2)c(-c2ccccc2)c(-c2ccc(F)cc2)n1CC[C@@H](O)C[C@@H](O)CC(=O)O", "note": "[atorvastatin]", "values": [
      {"measurement": "CD69 level", "setting": "[1]", "result": "significant decreases"},
      {"measurement": "E-selectin level", "setting": "[1]", "result": "increases"},
      {"measurement": "IL-8 level", "setting": "[1]", "result": "increases"},
      {"measurement": "P-selectin level", "setting": "[2]", "result": "increases"},
      {"measurement": "IL-1alpha level", "setting": "[3]", "result": "significant decreases"},
      {"measurement": "M-CSF level", "setting": "[3]", "result": "increases"},
      {"measurement": "tissue factor level", "setting": "[3]", "result": "increases"}
    ]}
  ]
}
